In general, AC50 refers to the concentration at which the activity in the assay is half-maximal.

AC50 data for 57 compounds are collected here from PubChem BioAssay AID1487 (National Center for Advancing Translational Sciences (NCATS), 2009).

The test is described as follows: qHTS Assay for Modulators of Lamin A Splicing. The note with it: HeLa LMNA splicing GFP/RFP minigene ratio, 48 h. The gist of the method:
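Read-out is the ratio of GFP to DsRed2 object intensity, acquired by 488 nm laser-scanning cytometry on HeLa lamin A-EGFP minigene reporter cells. Compound incubation 48 hrs at 37 °C in Opti-MEM with 2% FBS; DMSO 0.5% final.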

Where [1] appears, read: measured here: RFP viability control channel.
Setting [2] is: measured here: GFP splicing reporter channel.

SMILES strings stand for the structures. The list shows a part of the results. These are further read-outs of the screen, such as a control signal, another cell line or another target. No call is given for them. The list favours compounds with an active or inconclusive main result. Potencies come from curve fits of mixed quality, noted in brackets.

On to `O=C(CCl)Nc1cccc(-c2cnc3ccccc3n2)c1`, for which the AC50 under setting [1] was 35.5 µM [falling, single point].

Regarding `COc1ccc(NS(=O)(=O)c2ccc(OC)c3ccccc23)cn1`, the concentration at half-maximal activity (AC50) reads like this: under setting [2], 22.4 µM [rising, partial curve, poor fit]; under setting [1], 28.2 µM [rising, partial curve].

`CCn1c(COc2cccc(C)c2)nnc1SCC(=O)CC(=O)Nc1ccccc1OC`: the AC50 under setting [1] was 10 µM [rising, partial curve, poor fit].

As to `Cc1noc(C)c1-c1ccc2ncnc(N3CCOCC3)c2c1`, the AC50 under setting [2] is 10 µM [falling, partial curve].

In the case of `O=C(CSCCO)Nc1ccc([N+](=O)[O-])cc1`, the AC50 under setting [1] is 7.94 µM [falling, full curve].

With `CCCCc1nc2c(c3c1C[C@H](C)OC3)CN(C(=O)Nc1cccc(C#N)c1)CC2`, the AC50 was 0.00708 µM [falling, full curve, poor fit] under setting [2] and 1.12 µM [falling, full curve, poor fit] under setting [1].

`COc1ccc(NC(=O)CC23CC4CC(CC(C4)C2)C3)cn1`: the AC50 under setting [2] was 35.5 µM [falling, single point].

On to `Cc1ccc(C)c(NC(=O)CN2C(=O)CCc3ccccc32)c1`, for which the AC50 under setting [1] was 0.0891 µM [falling, full curve, poor fit].

`O=C(NCCOc1cccc(Oc2ccccc2)c1)c1cc(-n2cnnc2)ccc1Cl`: the concentration at half-maximal activity (AC50) under setting [1] is 3.98 µM [rising, single point].

Regarding `CCc1ccc(-c2nc(CSCC(=O)N3CCN(c4ncccn4)CC3)c(C)o2)cc1`, the AC50 under setting [1] was 17.8 µM [rising, single point].

Turning to `Cc1cc(C)c2nc(SC(C)C(=O)NCC(=O)Nc3ccc(F)c(F)c3F)cc(C)c2c1` (stereo unspecified), the AC50 under setting [1] is 0.891 µM [rising, partial curve, poor fit].

For the compound `CCCn1c(=S)[nH]c2cc(C(=O)NCC3CCCO3)ccc2c1=O` (stereo unspecified), the AC50 under setting [1] is 0.0631 µM [rising, full curve, poor fit].

On to `COc1ccc(OCCNC(=O)/C=C/c2ccc([N+](=O)[O-])cc2)cc1`, for which the AC50 under setting [2] was 14.1 µM [rising, single point].

As for `CCOC(=O)C1CCCN(S(=O)(=O)c2ccc(F)c(C(=O)Nc3ccc(F)c(F)c3)c2)C1` (stereo unspecified), the AC50 under setting [1] was 20 µM [rising, single point].

Consider `CC(C)(C(=O)O)n1cncn1`, for which the AC50 under setting [1] is 0.794 µM [falling, full curve].

For `COC(=O)c1ccc(NC(=O)CCS(=O)(=O)c2ccc(Br)cc2)cc1`, the AC50 under setting [1] was 5.01 µM [falling, partial curve, poor fit].

As to `CC(=O)c1cc2c(cc1N/C(=N/S(=O)(=O)c1ccc(C)cc1)c1ccccc1)OCO2`, the AC50 under setting [1] was 31.6 µM [rising, single point].

For the compound `O=C(NCc1ccco1)c1cnc2ccccn2c1=O`, the AC50 under setting [1] is 25.1 µM [rising, single point].

As for `COc1ccc(-c2cc(C(=O)Nc3nc4ccccc4s3)c3ccccc3n2)cc1OC`, the half-maximal activity concentration (AC50) reads like this: under setting [2], 0.447 µM [rising, full curve, poor fit]; under setting [1], 6.31 µM [rising, single point].

Regarding `COc1ccc(N(C)S(=O)(=O)c2cccc(C(=O)N(C)Cc3ccc(C)o3)c2)cc1`, the AC50 under setting [1] is 0.02 µM [rising, full curve, poor fit].

On to `COc1ccccc1NS(=O)(=O)c1cc(NC(=O)CNC(=O)c2cc(C)cc(C)c2)ccc1C`, for which the half-maximal activity concentration (AC50) under setting [1] is 20 µM [rising, single point].

In the case of `CCOc1ccc(-c2nc(-c3ccc(OC)cc3)no2)cc1OCC`, the concentration at half-maximal activity (AC50) under setting [1] was 35.5 µM [rising, partial curve].

In the case of `CCc1ccccc1NC(=O)c1ccc([N+](=O)[O-])s1`, the AC50 under setting [1] was 5.62 µM [rising, partial curve].

For the compound `Cc1ccccc1CSc1nc2c(c(=O)[nH]1)CCC2`, the AC50 reads like this: under setting [2], 20 µM [rising, partial curve]; under setting [1], 35.5 µM [rising, single point].

Consider `Cc1sc(Nc2ccc([N+](=O)[O-])cc2)nc1-c1c(C)n(C)n(-c2ccccc2)c1=O`, for which the AC50 reads like this: under setting [2], 12.6 µM [rising, single point]; under setting [1], 28.2 µM [rising, single point].

`O=C(NNC(=O)C(c1ccccc1)c1ccccc1)c1ccccn1`: the AC50 is, setting by setting: under setting [2], 3.16 µM [rising, full curve]; under setting [1], 3.98 µM [rising, full curve].

Regarding `COC(=O)C(Nc1nccs1)(OC)C(F)(F)F` (stereo unspecified), the AC50 under setting [1] is 20 µM [falling, partial curve, poor fit].

As for `O=c1oc2c(O)c(O)cc3c(=O)oc4c(O)c(O)cc1c4c23`, the AC50 reads like this: under setting [2], 3.16 µM [falling, single point]; under setting [1], 3.98 µM [falling, single point].

In the case of `CCOc1cc(/C=C2\SC(=N)N(c3nonc3N)C2=O)ccc1OCC(N)=O`, the AC50 under setting [2] was 22.4 µM [falling, single point].

For `O=c1c2c(nc3c(-c4ccc(Cl)cc4)c[nH]n13)CCC2`, the AC50 under setting [1] is 1.12 µM [rising, partial curve, poor fit].

As for `Cc1nn(C)c(C(=O)NCc2ccc(Cl)cc2)c1Cl`, the AC50 is 2.24 µM [rising, full curve] under setting [2] and 2.51 µM [rising, full curve] under setting [1].

`COc1cc(/C=N/NC(=O)COc2cccc(F)c2)ccc1OS(=O)(=O)c1ccc(C)cc1`: the AC50 is 0.891 µM [rising, partial curve] under setting [2] and 20 µM [rising, partial curve] under setting [1].

`C=CCNC(=S)Nc1ccc(Cl)cc1F`: the concentration at half-maximal activity (AC50) under setting [1] is 0.02 µM [falling, full curve, poor fit].

As for `Cc1nc2ccn(Cc3cccs3)c(=O)c2cc1C(=O)NCc1ccc(Cl)cc1`, the AC50 is 0.00447 µM [rising, full curve, poor fit] under setting [2] and 0.891 µM [rising, full curve, poor fit] under setting [1].

Turning to `O=C(CCN1CCOCC1)N1CCc2c([nH]c3ccccc23)C1c1cccc(Cl)c1` (stereo unspecified), the AC50 runs as follows: under setting [2], 3.98 µM [falling, full curve, poor fit]; under setting [1], 1.41 µM [falling, partial curve, poor fit].

On to `c1coc(CNc2ncnc3c2oc2ccccc23)c1`, for which the AC50 under setting [1] is 14.1 µM [rising, partial curve].

With `COc1ccc(-n2nnnc2S(=O)(=O)Cc2ccc(C(=O)O)cc2)cc1`, the AC50 is 22.4 µM [falling, single point] under setting [2] and 28.2 µM [falling, single point] under setting [1].

With `COC(=O)C1=C(N)Oc2cc(C)n(CC3CCCO3)c(=O)c2C1c1ccc(Cl)c(Cl)c1` (stereo unspecified), the AC50 is, setting by setting: under setting [2], 35.5 µM [rising, single point]; under setting [1], 35.5 µM [rising, single point].

For `CCOc1cc(/C=N/NC(=O)C(C)Sc2ccccc2)ccc1O` (stereo unspecified), under setting [2], the AC50 is 0.0631 µM [rising, full curve, poor fit].

As to `CCCc1cc(C(=O)Cc2ccc(F)cc2)c(O)cc1O`, the AC50 under setting [2] is 11.2 µM [rising, partial curve] and the AC50 under setting [1] is 14.1 µM [rising, single point].

As to `CCOC(=O)C(CC)(CC)C(=O)/C=C/c1ccc(Br)cc1`, the AC50 reads like this: under setting [2], 14.1 µM [falling, partial curve]; under setting [1], 12.6 µM [falling, partial curve].

For `COCCCNC(=O)C(C#N)c1nc2ccccc2nc1N1CCN(Cc2ccccc2)CC1` (stereo unspecified), the concentration at half-maximal activity (AC50) under setting [1] was 10 µM [falling, partial curve].

On to `CC(C)(C)C(=O)Nc1cccc2[nH]ncc12`, for which the AC50 is 0.00398 µM [rising, full curve, poor fit] under setting [2] and 0.631 µM [falling, single point] under setting [1].

For the compound `Cc1cccc(NC(=S)N2CCCN(c3ncccc3[N+](=O)[O-])CC2)c1`, under setting [1], the half-maximal activity concentration (AC50) is 35.5 µM [falling, single point].

As for `Cc1ccc(-c2nc3cccnc3s2)cc1NS(=O)(=O)c1ccc2c(c1)CCCC2`, the AC50 under setting [1] was 10 µM [rising, partial curve].

Regarding `O=C1c2cnc3nc(SCc4ccc(Cl)cc4)nn3c2CC2c3ccccc3CCN12` (stereo unspecified), the AC50 under setting [2] is 20 µM [rising, single point].

For the compound `CCCC(=O)Nc1ccc(NC(=S)NC(=O)c2ccccc2[N+](=O)[O-])cc1`, the AC50 under setting [1] was 22.4 µM [rising, single point].

For `CNC(=O)/C(C#N)=C/c1ccc(-c2ccc(Cl)cc2)o1`, the half-maximal activity concentration (AC50) under setting [1] is 12.6 µM [falling, partial curve, poor fit].

As for `CCN(CC)S(=O)(=O)c1cc(NC(=O)C(=O)c2c(-c3ccccc3)cc3ccccn23)ccc1C`, under setting [1], the AC50 is 12.6 µM [rising, partial curve].

`CCOC(=O)c1c(NC(=O)CSC(=S)N(C)C)sc(C)c1C`: the AC50 by setting is: under setting [2], 12.6 µM [rising, partial curve]; under setting [1], 20 µM [rising, partial curve, poor fit].

In the case of `CC(C)=NNc1nc(-c2ccccc2)cs1`, the AC50 under setting [1] is 35.5 µM [rising, single point].

`CCCC1=Nc2cc(C(=O)NCCCOC(C)C)ccc2Sc2ccccc21`: the AC50 under setting [1] is 7.08 µM [rising, partial curve].

Turning to `Cc1ccc(-c2noc(CN3CCN(Cc4ccccc4)CC3)n2)cc1`, the concentration at half-maximal activity (AC50) under setting [1] is 35.5 µM [rising, single point].

For the compound `CCNC(=S)NNC(=O)c1csc2c1CCCC2`, under setting [2], the AC50 was 3.55 µM [falling, single point].

With `COc1ccccc1NS(=O)(=O)c1ccc(C)c(NC(=O)c2ccc(S(=O)(=O)N3CCCCCC3)cc2)c1`, the half-maximal activity concentration (AC50) under setting [1] was 3.98 µM [rising, full curve].

`O=C(c1ccc2c(c1)N(Cc1cccc(Cl)c1)C(=O)c1ccccc1S2(=O)=O)N1CCCCCC1`: the half-maximal activity concentration (AC50) reads like this: under setting [2], 22.4 µM [falling, partial curve, poor fit]; under setting [1], 28.2 µM [falling, partial curve].

Regarding `Cc1onc(-c2ccccc2Cl)c1C(=O)Nc1ccccc1C(=O)NC(C)C`, the AC50 under setting [2] was 11.2 µM [rising, partial curve] and the AC50 under setting [1] was 11.2 µM [rising, partial curve].
